Data published in patent US10350264B2, “Compositions and methods for modulating NCOA4-mediated autophagic targeting of ferritin” (Dana-Farber Cancer Institute, Inc., priority 2014, dated 2019).
For at least one compound, name, drawing or mass did not settle the structure.

Experiments:
[1] = test system: PANC1 cells; assay: autophagosome formation, fluorescence microscopy of cells expressing GFP-MAP1LC3B; type: cell-based, human; details: Wortmannin 200 nM 1 h, chloroquine 25 μM 4 h, FIG. 13(b)
[2] = test system: 8988T cells; assay: density gradient autophagosome enrichment after drug treatment; type: cell-based, human; details: Wortmannin 1 h 200 nM versus chloroquine 4 h 25 μM, FIG. 13(d)

Q: For `COC[C@H]1OC(=O)c2coc3c2[C@@]1(C)C1=C(C3=O)[C@@H]2CCC(=O)[C@@]2(C)C[C@H]1OC(C)=O` [Wortmannin], which effect on autophagosomes [1] is on record?
A: blocked autophagosome formation

Q: What about the “material recovered from A1 (autophagosome) interface” value [2] of the same molecule?
A: decreased amount of material is recovered
